Reference: patent US20150368611A1
These are yes or no findings as the source states them, for the method shown. In cells and extracts the contact can be indirect. Some entries that bind do so weakly or less than the wild type.

The chains behind the UniProt entries cited, without tags or fusion partners. Where a name states a change or a piece, a line headed by the entry shows the natural chain unless it says otherwise. A line that says so, or that is headed by a name, gives the form on record, which may keep a tag or linker.
RORγt, mouse (P51450, form named): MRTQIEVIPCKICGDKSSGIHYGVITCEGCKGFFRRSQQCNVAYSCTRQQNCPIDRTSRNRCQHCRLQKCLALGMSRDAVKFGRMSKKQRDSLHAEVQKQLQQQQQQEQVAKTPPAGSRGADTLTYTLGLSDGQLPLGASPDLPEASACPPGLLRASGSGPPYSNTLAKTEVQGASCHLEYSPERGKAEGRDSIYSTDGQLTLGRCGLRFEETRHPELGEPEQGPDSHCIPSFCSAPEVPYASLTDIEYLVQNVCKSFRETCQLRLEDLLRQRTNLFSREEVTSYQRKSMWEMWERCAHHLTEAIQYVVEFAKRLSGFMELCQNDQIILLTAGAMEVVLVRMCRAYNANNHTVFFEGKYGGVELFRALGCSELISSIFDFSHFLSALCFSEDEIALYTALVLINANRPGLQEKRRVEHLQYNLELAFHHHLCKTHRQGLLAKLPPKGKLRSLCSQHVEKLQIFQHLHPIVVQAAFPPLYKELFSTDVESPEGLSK
UniProt P28033: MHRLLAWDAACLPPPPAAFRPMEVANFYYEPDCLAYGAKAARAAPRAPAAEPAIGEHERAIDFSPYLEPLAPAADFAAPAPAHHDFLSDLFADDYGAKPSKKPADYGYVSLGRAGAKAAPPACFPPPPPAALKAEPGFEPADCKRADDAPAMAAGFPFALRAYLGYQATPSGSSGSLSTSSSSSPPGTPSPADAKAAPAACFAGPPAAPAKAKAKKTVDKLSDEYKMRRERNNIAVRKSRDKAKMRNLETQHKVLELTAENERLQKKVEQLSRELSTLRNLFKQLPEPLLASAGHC

Experiments:
RORγt, mouse (mouse) [1] = target: RORγt, mouse (mouse) (UniProt P51450); assay: co-immunoprecipitation from whole cell extracts of transfected 293T cells (FIG. 5E legend)
RORγt, mouse (mouse) [2] = target: RORγt, mouse (mouse) (UniProt P51450); assay: co-immunoprecipitation from whole cell extracts of transfected 293T cells (anti-Myc IP, immunoblot)

Substance: C/EBPβ (CCAAT/enhancer binding protein beta), full-length mouse (from UniProt P28033 1-296)
- binding (RORγt, mouse (mouse) [1]): binds
- binding (RORγt, mouse (mouse) [2]): binds
